Reference: patent publication US8124579B2, “Heat shock protein 20-related polypeptides and uses therefor” (Arizona Board of Regents, priority 2003, dated 2012)
At least one compound was matched to its structure with a doubt left.

Columns and labels:
Format in all cases: cell-based
Swiss 3T3 cells = experiment: Actin stress fibers and cell morphology, phalloidin staining; conditions: peptides 25 μM, forskolin and lysophosphatidic acid 10 μM, serum 10%, 30 minutes, phalloidin stain
Experimental: Unless otherwise stated, all reagents were purchased from Sigma, St. Louis, Mo. Swiss Albino 3T3 fibroblasts (ATCC, Manassas, Va.) were cultured in DMEM supplemented with 10% BCS, 4 mM L-glutamine and 50 μg/ml penicillin-streptomycin and maintained at 37° C., 5% CO2. Cells were seeded and cultured overnight. Culture media was replaced with DMEM containing 0.5% BCS 1 hour prior to experimentation. Cells were incubated with the peptide analogues or reagent (LPA or forskolin) diluted in DMEM containing 0.5% BCS, 30 minutes at 37° C. Cells were then fixed in 4% paraformaldehyde, permeabilized in 0.25% Triton X-100, and blocked with 1% BSA solution for 1 hour. To determine α-actin cytoskeletal distribution, treated cells were incubated with Alexa 568 phalloidin (Molecular Probes, Eugene, Oreg.) in 1% BSA, 30 min. To determine focal adhesion protein localization, treated cells were incubated with primary monoclonal antibodies for α-actinin (1:100, Upstate, Charlottesville, Va.), vinculin (1:100, Sigma) or paxillin (1:100, BD Bioscience-Transduction Labs, San Jose, Calif.) in 1% BSA solution for 2 hours, rinsed in PBS and incubated 60 minutes with Cy3-goat IgG secondary antibody (Jackson ImmunoResearch, West Grove, Pa.). Slides were mounted and analyzed by confocal microscopy (Leica TCS SP2, Bannockburn, Ill.). […]

g-actin = experiment: DNase 1 inhibition assay for globular (g-) actin; conditions: forskolin 10 μM, pHSP20 25 μM; 30 minutes
3T3 cells = experiment: Immunocytochemistry of focal adhesion protein localization (α-actinin, vinculin, paxillin); conditions: 30 minutes at 37° C., confocal microscopy
phospho-cofilin = experiment: Immunoblotting of cofilin and phospho-cofilin in 3T3 cell lysates; conditions: 3T3 cells; FSK 10 μM, FITC-pHSP20 25 μM; 30 min at 37° C.; immunoblot

C=C[C@@]1(C)CC(=O)[C@]2(O)[C@@]3(C)[C@@H](O)CCC(C)(C)[C@@H]3[C@H](O)[C@H](OC(C)=O)[C@@]2(C)O1 [forskolin]
stress fibers and cell morphology (Swiss 3T3 cells): displayed stellate morphology and disrupted stress fibers
g-actin level (g-actin): led to increases in g-actin
focal adhesion accumulations of α-actinin, vinculin, and paxillin (3T3 cells): displayed a decrease in focal adhesion accumulations of α-actinin, vinculin, and paxillin
amount of phosphorylated cofilin (phospho-cofilin): led to decreases in the amount of phosphorylated cofilin
